From the supplement of paper PMC7646827
Repeats are few or missing, and single values can be far off.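 All cells are established human bladder cancer lines, one derived from a patient-derived xenograft. A luminescent ATP assay measured viability as percent inhibition relative to vehicle across seven dilutions. The paper rates scores above 59 very active, 30–59 active, 21–29 semi-active, 9–20 low active, below 9 inactive.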

Experiments:
Test in all cases: drug sensitivity score DSS3 (score 0-100); higher = more sensitive; extreme values may be limits of the assay
Settings in all cases: culture: 3D, ultra-low attachment; treatment time: 5 days
UM-UC-14 = system: UM-UC-14
UM-UC-18 = system: UM-UC-18
UM-UC-3 = system: UM-UC-3
T-24 = system: T-24
5637 = system: 5637
UM-UC-6 = system: UM-UC-6
UM-UC-15 = system: UM-UC-15
SW780 = system: SW780
UM-UC-1 = system: UM-UC-1
UM-UC-5 = system: UM-UC-5
TCCSUP = system: TCCSUP
UM-UC-17 = system: UM-UC-17
SCaBER = system: SCaBER
BC8149 = system: BC8149
UM-UC-9 = system: UM-UC-9
J82 = system: J82
UM-UC-12 = system: UM-UC-12

SMILES | drug sensitivity score DSS3 (UM-UC-14) | drug sensitivity score DSS3 (UM-UC-18) | drug sensitivity score DSS3 (UM-UC-3) | drug sensitivity score DSS3 (T-24) | drug sensitivity score DSS3 5637 | drug sensitivity score DSS3 (UM-UC-6) | drug sensitivity score DSS3 (UM-UC-15) | drug sensitivity score DSS3 (SW780) | drug sensitivity score DSS3 (UM-UC-1) | drug sensitivity score DSS3 (UM-UC-5) | drug sensitivity score DSS3 (TCCSUP) | drug sensitivity score DSS3 (UM-UC-17) | drug sensitivity score DSS3 (SCaBER) | drug sensitivity score DSS3 (BC8149) | drug sensitivity score DSS3 (UM-UC-9) | drug sensitivity score DSS3 (J82) | drug sensitivity score DSS3 (UM-UC-12)
COc1cc2ncnc(Nc3ccc(F)c(Cl)c3)c2cc1NC(=O)/C=C/CN1CCCCC1 (max dose 10000 nM) | 13.8 | 41.5 | 14.4 | 0 | 33.9 | 29.3 | 6.99 | 0.947 | 17.8 | 0 | 41.2 | 2.39 | 28.7 | 10.6 | 0 | 0 | 44.9
COCCOc1cnc2ccn([C@H](C)c3nnc4c(F)cc(-c5cnn(C)c5)cn34)c(=O)c2c1 [AMG 337] (max dose 10000 nM) | 0 | 0 | 0 | 0 | 0 | 0 | 0 | 0 | 0 | 0 | 0 | 0 | 0 | 0 | 0 | 0 | 0
Nc1ccccc1NC(=O)c1ccc(CNC(=O)OCc2cccnc2)cc1 [Entinostat, Entinostat (MS-275)] (max dose 10000 nM) | 4.61 | 8.5 | 3.59 | 3.93 | 8.45 | 0 | 3.19 | 0.423 | 1.61 | 0 | 16.7 | 8.82 | 0 | 18.4 | 5.53 | 7.36 | 3.05
CCC1(c2ccc(N)cc2)CCC(=O)NC1=O (configuration not stated) [Aminoglutethimide] (max dose 10000 nM) | 0 | 0 | 0 | 0 | 0 | 0 | 0 | 0 | 0 | 0 | 0 | 0 | 0 | 0 | 0 | 0 | 0
C[C@]12CC[C@@H]3c4ccc(O)cc4CC[C@H]3[C@@H]1CCC2=O [Estrone] (max dose 10000 nM) | 0.548 | 3.87 | 1.19 | 0 | 10.2 | 4.52 | 0 | 0 | 4.07 | 0 | 8.38 | 6.69 | 0 | 2.31 | 0 | 0 | 0
OCCn1cc(-c2ccc3c(c2)CC/C3=N\O)c(-c2ccncc2)n1 [GDC-0879] (max dose 10000 nM) | 1.57 | 0 | 0 | 0 | 0 | 0.0312 | 0 | 0 | 0 | 0 | 0.6 | 0 | 0 | 0 | 0 | 0 | 0
COc1cc(C)[nH]c(=O)c1CNC(=O)c1c(C)n([C@H](C)C2CCOCC2)c2ccccc12 [CPI-360] (max dose 10000 nM) | 0 | 0 | 0 | 0 | 1.93 | 1.64 | 0 | 0 | 0.588 | 0 | 5.2 | 0.111 | 0.462 | 0 | 0 | 0 | 0.00414
COc1cc2nccc(Oc3ccc(NC(=O)NC4CC4)c(Cl)c3)c2cc1C(N)=O [Lenvatinib (E7080)] (max dose 10000 nM) | 7.33 | 0 | 0 | 0 | 2.45 | 0.8 | 0 | 1.91 | 3.42 | 0 | 17 | 2.68 | 0 | 4.22 | 0 | 0 | 0.407
CNCc1ccc(-c2cc(-c3nc(-c4ccc(S(=O)(=O)C(C)C)cc4)cnc3N)on2)cc1 [VX-970] (max dose 10000 nM) | 4.06 | 0 | 2.82 | 0 | 9.27 | 0 | 0 | 0 | 9.7 | 3.13 | 18.5 | 5.02 | 0.127 | 3.64 | 0 | 0 | 0
O=C(CCCCCCC(=O)Nc1ccccc1)NO [Vorinostat (SAHA, MK0683)] (max dose 10000 nM) | 0.95 | 2.29 | 0 | 0.307 | 6.1 | 2.79 | 5.32 | 0 | 0.933 | 1.08 | 16.9 | 1.92 | 0.514 | 3.4 | 1.41 | 1.21 | 4.32
CCc1cc(Nc2nccc(-c3c(-c4ccc(OC)c(C(=O)Nc5c(F)cccc5F)c4)nc4ccccn34)n2)c(OC)cc1N1CCC(N2CCN(S(C)(=O)=O)CC2)CC1 (max dose 10000 nM) | 0 | 0 | 0 | 0 | 0 | 0 | 0 | 0 | 0 | 0 | 0 | 0 | 0 | 0 | 0 | 0 | 0

Single entries from the results shown:
C[C@]12CC[C@@H]3c4ccc(O)cc4CC[C@H]3[C@@H]1CCC2=O [Estrone] (max dose 10000 nM) – drug sensitivity score DSS3 (SW780): 0
Nc1ccccc1NC(=O)c1ccc(CNC(=O)OCc2cccnc2)cc1 [Entinostat, Entinostat (MS-275)] (max dose 10000 nM) – drug sensitivity score DSS3 (TCCSUP): 16.7
